# From paper PMC7819943, “Rice protein-binding microarrays: a tool to detect cis-acting elements near promoter regions in rice”
# Chains of the proteins cited; added tags and fusions are not shown.
# UniProt Q0JBA9, entry or part of it: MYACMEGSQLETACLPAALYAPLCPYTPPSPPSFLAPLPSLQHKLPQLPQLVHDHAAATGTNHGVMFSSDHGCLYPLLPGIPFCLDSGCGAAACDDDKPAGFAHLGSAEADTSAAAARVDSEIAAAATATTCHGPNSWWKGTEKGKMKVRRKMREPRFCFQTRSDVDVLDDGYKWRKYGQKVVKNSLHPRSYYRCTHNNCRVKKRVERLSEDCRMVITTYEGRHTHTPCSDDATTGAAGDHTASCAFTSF
# This is one part of the list.
# Target: OsWRKY34 (Oryza sativa, UniProt Q0JBA9 1-250)
# Assay: protein-binding microarray (RPBM); PBS, 2% BSA, 51.3 ng/ul salmon testes DNA, 50 uM zinc acetate, 200 nM TF, 25 C, 1 h; high values mean tight binding
# Settings: protein: recombinant; tags: N-terminal polyhistidine and DsRed monomer fusion (pET32a); label: CyDye5-dUTP incorporated in the synthesized complementary strand; 3' TTTTT single-stranded linker to array surface; dsDNA, one strand shown
# Summary of the method: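 The binding signal is fluorescence intensity per feature, in arbitrary units, read on an Axon 4000B scanner. Polyhistidine- and DsRed-tagged transcription factors (N-terminal fusions) from E. coli BL21-CodonPlus were purified on Ni–NTA and applied at 200 nM for 1 h at 25 °C to a double-stranded, BSA-blocked custom Agilent array in buffer with 50 µM zinc acetate.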
row,Sequence,binding signal
1,GCATCGCCGTGTTCTTCACTTCTTCCCATCCGTCCACTTCCGGAGTCACCTAGTGCAG,8680 fluorescence intensity (a.u.)
2,GTTTTTCAGCCGTGATATGTTTTTGTGATGTTTATCATTTCGGAGTCACCTAGTGCAG,9520 fluorescence intensity (a.u.)
3,ATTCTGCAACTGTTCATCGCTGTTCCTAAATCTGATTTCACGGAGTCACCTAGTGCAG,11400 fluorescence intensity (a.u.)
4,GGTTAGGTTAGGTTACCAGCTCAAGATGTCTTAATCTTTTCGGAGTCACCTAGTGCAG,9160 fluorescence intensity (a.u.)
5,GTGGGTTTTAAAGTTCATTCTCTTTTGGAAATACAGATCCCGGAGTCACCTAGTGCAG,12600 fluorescence intensity (a.u.)
6,GTTGCTGTTGCTAACTTGATTTTTTTTCTTCTATTGCTCACGGAGTCACCTAGTGCAG,8560 fluorescence intensity (a.u.)
7,CACCGTCCGTCCGATGCCTCCCCGTTCTCGCGCCCATCGACGGAGTCACCTAGTGCAG,8450 fluorescence intensity (a.u.)
8,CGTTTTGCTATGCGCCTATGCCATGATATAAAAATAAAACCGGAGTCACCTAGTGCAG,8170 fluorescence intensity (a.u.)
9,GAAGGGCTCGGGTTGGATGGCATATACTGAAAATTCTCATCGGAGTCACCTAGTGCAG,8070 fluorescence intensity (a.u.)
10,GCTCACCTCCACCTCCACCTCACCTCCTCCTCCTCCTCATCGGAGTCACCTAGTGCAG,10200 fluorescence intensity (a.u.)
11,GATGTTTTTTTTCCTTCAAATTTTCTGTTCATGCGTATCTCGGAGTCACCTAGTGCAG,8900 fluorescence intensity (a.u.)
12,CTCTCTATATATAGCTCTCGTCTTCTTCCACCTCTCACTCCGGAGTCACCTAGTGCAG,9300 fluorescence intensity (a.u.)
13,GCCTGAAATCCTGAATCCACATCATTCTATAGTCCCTGTCCGGAGTCACCTAGTGCAG,9240 fluorescence intensity (a.u.)
14,TTGGTATGTCTGCACTGTGCTCTGTGGATCATGTTCTCCGCGGAGTCACCTAGTGCAG,10800 fluorescence intensity (a.u.)
15,GCTTTGTTAGGCTTCTATGTCTTGCTTTGCTAAAACCAAACGGAGTCACCTAGTGCAG,10300 fluorescence intensity (a.u.)
16,TCTAGATTCACTAATGTTTATATAAATTTGGACACATATACGGAGTCACCTAGTGCAG,8070 fluorescence intensity (a.u.)
17,TTGCTTGCCTGACACATTACATAACTTGCAGTACCTTGATCGGAGTCACCTAGTGCAG,8130 fluorescence intensity (a.u.)
18,GAGAACCTAATTGTGAGGCTCCTAGTTACACGACAAATCACGGAGTCACCTAGTGCAG,56300 fluorescence intensity (a.u.)
19,TGACTCTCTCCGCATCGGTTATACTACGCGCCCAACCTCCCGGAGTCACCTAGTGCAG,9930 fluorescence intensity (a.u.)
20,AGTCTAAGTGGACTTTTTCCTTACTGCTTAATTATACTCACGGAGTCACCTAGTGCAG,8340 fluorescence intensity (a.u.)
21,GGTTCGATCTCTTTCGTTAGGTTAATTCAGGCTTGATGATCGGAGTCACCTAGTGCAG,9100 fluorescence intensity (a.u.)
22,TTCATAGGCTTTGTGGTGGTGCTCGATTGGATAATTCTTCCGGAGTCACCTAGTGCAG,8510 fluorescence intensity (a.u.)
23,TGTGTCCATTGATTTATGATTGCCCATTTTTATCAGATAACGGAGTCACCTAGTGCAG,9360 fluorescence intensity (a.u.)
24,CTAATCACGTTTTGGCGATTTAGTCTTCTCTCTTCTCTCTCGGAGTCACCTAGTGCAG,9750 fluorescence intensity (a.u.)
25,TCCAGTTTTGGTCTGGGTGATGTGTCATGTTCTGATTGGCCGGAGTCACCTAGTGCAG,8180 fluorescence intensity (a.u.)
26,CTTTTACTTTGTCATTACTTGGTATATCCACAGTTTGTCTCGGAGTCACCTAGTGCAG,10700 fluorescence intensity (a.u.)
27,ATTTATGGTTTCTTCATTGATTTTCTGCACAAGCAAGCATCGGAGTCACCTAGTGCAG,8070 fluorescence intensity (a.u.)

row,Sequence,binding signal
1,TTCTGTTGTTTTACTTTGGTTGACCCAAGTATGAAGCTTTCGGAGTCACCTAGTGCAG,9610 fluorescence intensity (a.u.)
2,TATTTTATGTGTGACTAACTTATTTTAATTTTCTCATAAACGGAGTCACCTAGTGCAG,8380 fluorescence intensity (a.u.)
3,CGTCTCCTGATCAAACGATCAACTTCGTTTCACGGTTTCACGGAGTCACCTAGTGCAG,8450 fluorescence intensity (a.u.)
4,GCTAGACTATCATCAGCAAGCTAGCAATTAAAGGCCTTGTCGGAGTCACCTAGTGCAG,64200 fluorescence intensity (a.u.)
5,TTGGCTGACTTCTCGCCGCAGCCGGTCACATCACGCGTCCCGGAGTCACCTAGTGCAG,8020 fluorescence intensity (a.u.)
6,GTGGGCATGATTTTCTTCTGTTTTCTCGTTTTAATTTTTTCGGAGTCACCTAGTGCAG,20100 fluorescence intensity (a.u.)
7,TACTTTTTATATTTCTTTTGCTAACTAGGGTGCCACGTCACGGAGTCACCTAGTGCAG,8250 fluorescence intensity (a.u.)
8,TTAGACAAAAAGTCAACGGCATCATACATTAAAATATGGACGGAGTCACCTAGTGCAG,12400 fluorescence intensity (a.u.)
9,TCAAACGATGCCATTCACCACGTGCCACTTTATATCAAACCGGAGTCACCTAGTGCAG,11700 fluorescence intensity (a.u.)
10,AGGGTTTTGATTTCCTATGTTAGATAGATGGGGTTGCGAGCGGAGTCACCTAGTGCAG,8620 fluorescence intensity (a.u.)
11,ATTAATCCCTCACTTGGGAACAAATCTACCTGCCTATATTCGGAGTCACCTAGTGCAG,9500 fluorescence intensity (a.u.)
12,AGGTTCAGTATATTTTTTGTCAGCTGATCATCGCCTAGATCGGAGTCACCTAGTGCAG,9230 fluorescence intensity (a.u.)
13,TGCCACCACGCCCTTCATCGCCCAATCGCCGTCCCTGAGCCGGAGTCACCTAGTGCAG,8790 fluorescence intensity (a.u.)
14,ATTCAGTCTGCAACTCTGCATGGCGCACACTTCCATTCATCGGAGTCACCTAGTGCAG,10400 fluorescence intensity (a.u.)
15,TAAGTAAAACCTACTTTTCCTCCTTCCGCTTCTCAGTCCACGGAGTCACCTAGTGCAG,8990 fluorescence intensity (a.u.)
16,CCGGTCGCCTCTGGTCGTGGTGCCCGCGAAATTTGACCGTCGGAGTCACCTAGTGCAG,8370 fluorescence intensity (a.u.)
17,GGCCCACCTGTCATACCTATCCTCAAACCAATCTGCCAATCGGAGTCACCTAGTGCAG,8360 fluorescence intensity (a.u.)
18,AAGCCCATAAAGATTCCGTCACTCGGAATCTTCAATCTTGCGGAGTCACCTAGTGCAG,8320 fluorescence intensity (a.u.)
19,TCAATCAAACGGTTATTTATGTGTTTTTTCTACTTTTTATCGGAGTCACCTAGTGCAG,11000 fluorescence intensity (a.u.)
20,TCCCAACAAACTCATCACATGCTCTCCTTGTTTGTTGCAACGGAGTCACCTAGTGCAG,9570 fluorescence intensity (a.u.)
21,ACCTCTCGCTCCACTCAGCCGCCGCCCCTCGCCGTCGCCGCGGAGTCACCTAGTGCAG,8080 fluorescence intensity (a.u.)
22,GCCACTCACTCGCTGCACACTAGTCCTTCAGTTTCAGTCCCGGAGTCACCTAGTGCAG,10800 fluorescence intensity (a.u.)
23,CGAGATCAAAATTAATCTTTCCGTACCCGTTGCATACTCCCGGAGTCACCTAGTGCAG,9110 fluorescence intensity (a.u.)
24,ACCCGTTTTGGTTGACTTGTGTTGACCTAGCCGAGTGACTCGGAGTCACCTAGTGCAG,11000 fluorescence intensity (a.u.)
25,GAAATCATCATGCATGCTTACTCTGTCCATCACCACTTGACGGAGTCACCTAGTGCAG,9130 fluorescence intensity (a.u.)
26,GCGGAATGGGCGGCGGTGGAGGTGGCGGGTTTGGAGGCGGCGGAGTCACCTAGTGCAG,16700 fluorescence intensity (a.u.)
27,CCATTGTTCCCTTTATAACCTGTGTTTTCCACCATATAATCGGAGTCACCTAGTGCAG,10300 fluorescence intensity (a.u.)

# 12 consecutive entries out of the list so far, for reference:
row,Sequence,binding signal
10,AGGGTTTTGATTTCCTATGTTAGATAGATGGGGTTGCGAGCGGAGTCACCTAGTGCAG,8620 fluorescence intensity (a.u.)
11,ATTAATCCCTCACTTGGGAACAAATCTACCTGCCTATATTCGGAGTCACCTAGTGCAG,9500 fluorescence intensity (a.u.)
12,AGGTTCAGTATATTTTTTGTCAGCTGATCATCGCCTAGATCGGAGTCACCTAGTGCAG,9230 fluorescence intensity (a.u.)
13,TGCCACCACGCCCTTCATCGCCCAATCGCCGTCCCTGAGCCGGAGTCACCTAGTGCAG,8790 fluorescence intensity (a.u.)
14,ATTCAGTCTGCAACTCTGCATGGCGCACACTTCCATTCATCGGAGTCACCTAGTGCAG,10400 fluorescence intensity (a.u.)
15,TAAGTAAAACCTACTTTTCCTCCTTCCGCTTCTCAGTCCACGGAGTCACCTAGTGCAG,8990 fluorescence intensity (a.u.)
16,CCGGTCGCCTCTGGTCGTGGTGCCCGCGAAATTTGACCGTCGGAGTCACCTAGTGCAG,8370 fluorescence intensity (a.u.)
17,GGCCCACCTGTCATACCTATCCTCAAACCAATCTGCCAATCGGAGTCACCTAGTGCAG,8360 fluorescence intensity (a.u.)
18,AAGCCCATAAAGATTCCGTCACTCGGAATCTTCAATCTTGCGGAGTCACCTAGTGCAG,8320 fluorescence intensity (a.u.)
19,TCAATCAAACGGTTATTTATGTGTTTTTTCTACTTTTTATCGGAGTCACCTAGTGCAG,11000 fluorescence intensity (a.u.)
20,TCCCAACAAACTCATCACATGCTCTCCTTGTTTGTTGCAACGGAGTCACCTAGTGCAG,9570 fluorescence intensity (a.u.)
21,ACCTCTCGCTCCACTCAGCCGCCGCCCCTCGCCGTCGCCGCGGAGTCACCTAGTGCAG,8080 fluorescence intensity (a.u.)
